Data from ChEMBL document CHEMBL4619774 (J Med Chem, 2020).
Values after ≈ are worked out from the molar mass of the structure shown.

Tests used:
in vitro [1] = settings: human, Caco-2
in vitro [2] = settings: human, Caco-2; remark: listed apart in the source
physchem [3] = settings: buffer, pH 6.8
physchem [4] = settings: buffer, pH 7.4

## CC(C)c1cc(COc2ccccc2CC(=O)O)cc(-c2ccc3c(c2)[C@H](N)CO3)c1
In vitro [1]
  Papp A→B: 7 ×10⁻⁶ cm/s
In vitro [2]
  Papp B→A: 17 ×10⁻⁶ cm/s
Physchem [3]
  solubility thermodynamic: 8 µM (≈ 3.34 µg/mL)
Physchem [4]
  logD: 3.1
